Results of single-concentration screens

Measurements from “University of Dundee, Small-Polar-MMV Screening Library” (2021), ChEMBL document CHEMBL3988442.

Mtb cholesterol medium: 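Whole-cell growth test on Mycobacterium tuberculosis, read after 4 days in a medium based on cholesterol and the lipid DPPC; the read-out is not stated. Tested at 500 µM. The record gives no direction; compounds that gave an IC50 in retests scored well above the rest, so higher reads as more growth inhibition. Size under these conditions: about 18,000 compounds, about 900 of them at 50% or above in at least one test.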
Mtb glucose medium: 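Whole-cell growth test on Mycobacterium tuberculosis, read after 3 days in glucose-containing 7H9 medium; the read-out is not stated. Concentration: 500 µM. Higher reads as more growth inhibition (inferred: compounds with an IC50 in retests scored well above the rest). Of about 18,000 compounds tested this way, about 1,400 (7.9%) reached 50% or more in at least one test.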

Values are the deposited “Percent Effect”, in %.
How 0% and 100% were set is not recorded. Most values in the screen are low, and negative values occur.
Compounds were drawn at random from those tested, without regard to their results.

compound,Mtb cholesterol medium,Mtb glucose medium
COCCn1cncc1CNC(=O)c1ccc(C)s1,-2.404,19.59
CNc1ncccc1C(=O)N1CC[C@](C)(O)[C@@H](O)C1,-0.2848,8.354
CN(Cc1ccc(Cl)s1)CC1CCS(=O)(=O)C1 (stereo not shown),33.03,-9.149
CCCNC(=O)c1ccccc1NS(=O)(=O)CC,2.468,4.52
Cc1csc(C(C)NC(=O)N[C@@H](C)C(=O)N(C)C)n1 (stereo partly shown),-4.639,-2.331
CCc1nccc(CN2CCC(NC(C)=O)C2)n1 (stereo not shown),-17.32,-9.606
O=C(NCC1CCCO1)c1cccc2cccnc12 (stereo not shown),7.645,-11.07
COc1cccc(CNC(=O)CCn2ccc(C)n2)c1,10.13,33.49
COC(=O)COc1ccc(C(C)=O)cc1Cl,58.51,48.04
CC(=O)NCC(=O)NCCc1ccc(O)cc1,5.397,11.61
COC(=O)[C@@H]1C[C@@H](O)CN1C(C)Cc1ccsc1 (stereo partly shown),36.88,31.67
CNC(=O)CCCNC(=O)OC(C)(C)C,3.055,11.93
CCC(=O)N1CCN(Cc2ccc(Br)cn2)CC1,8.372,30.03
CCOc1ccc(NC(=O)N[C@@H]2CNCC[C@H]2O)cc1,13.26,27.7
CCN(CC)CC(O)COc1ccc(OC)cc1 (stereo not shown),8.506,-2.074
C=C(Br)CNC(=O)NCC(C)(O)c1ccsc1 (stereo not shown),15.35,31.04
CC(C)Cc1cc(CNC(=O)C2CCOC2)on1 (stereo not shown),9.709,14.42
CCN1CCN(CCC(=O)Nc2cccc(C)c2)CC1,6.258,15.44
CC1(C)CN(S(=O)(=O)N2CCCCC2)CC[S+]1[O-] (stereo not shown),-0.5811,-2.162
N#CC1CNCCO1 (stereo not shown),-16.05,-9.076
CC(C)CN1CCOC(CNC(=O)CN(C)CCO)C1 (stereo not shown),-3.534,-3.816
CC(=O)NCCCNC(=O)c1cc(F)cc(Br)c1,-3.198,5.918
CCCc1cc(CN(C)C(=O)c2ccnnc2)n[nH]1,8.012,13.18
O=C(Nc1ccc(-n2cncn2)nc1)N1CCSCC1,-3.33,1.305
CCCS(=O)(=O)NCCCNC(=O)c1ccc(F)cc1,22.79,46.86
CN(C)C(=O)C1(N)CCCC1,10.36,8.452
Cc1nn(C)c(C)c1S(=O)(=O)NC(CN)CC(C)C (stereo not shown),7.766,-3.544
Cc1nc(C(=O)NCCc2nncn2C(C)C)cs1,8.987,10.56
CCC(c1nnc(SCC(=O)NCC(C)C)o1)N(C)C (stereo not shown),54.71,61.23
Cc1ncn(CC(O)c2cccc(F)c2)c(=O)c1C (stereo not shown),14.6,39.31
CN(C)C(=O)CN1CCC(O)CC1,-2.286,1.759
CC(=O)Nc1ccc(F)c(C(=O)N2CCCCO2)c1,4.044,11.1
CC(C)OCC(=O)N1C[C@@H](C)[C@](O)(C2CC2)C1,-17.23,8.424
COC(=O)C(OC)c1ccccc1O (stereo not shown),-2.224,3.579
CC(=O)N1CCCN(S(=O)(=O)c2cnn(C)c2)CC1,-6.914,-5.24
CCN(CCn1cccn1)C(=O)c1cc(CO)ccn1,8.403,0.8347
CO[C@H]1CNCC1NC(=O)Cc1ccc(F)cc1Cl (stereo partly shown),-7.525,3.772
CN(C)C(=O)OC(C)(C)C,3.032,-0.1898
OCCn1ncc2c1CN(CCCc1ccco1)C2,-9.423,29.42
CCC=C(C)C(=O)NCC(C)(C)N1CC[S+]([O-])CC1,-2.957,6.281
c1cn(C2CCCNC2)nn1 (stereo not shown),-11.75,-5.985
CN(Cc1ccc(O)cc1)C(=O)c1cc(Cl)c[nH]1,100,85.06
C[C@@H](C(=O)NCCCc1cccnc1)n1cnnn1,8.008,10.86
NC(c1ccc2c(c1)OCCO2)C1CC1 (stereo not shown),6.069,12.18
CC(O)c1nnc[nH]1 (stereo not shown),-4.311,6.024
Nc1ncn(S(=O)(=O)c2ccccc2)n1,15.82,6.445
CC1CSc2ccccc2C(=O)N1 (stereo not shown),-5.151,-1.431
CC(C)C(=O)NC1CCN(C(=O)c2ccccc2)CC1,-14.73,-12.84
CC(Oc1ccc(Cl)cc1C(N)=O)C(=O)N1CCCC1 (stereo not shown),6.887,31.06
CN(C)C1CCN(c2ncnc3c2cnn3C)CC1,-2.244,6.976
O=C(NCC1CCNCC1)c1coc2ccccc12,-0.4143,-6.244
CC(C)N(CC(N)=O)Cc1cn2ccccc2n1,4.819,7.635
C(OC1CNC1)c1nc(C2CC2)no1,-5.263,4.634
Cc1ccc(F)c(N2CCC(N)CC2)c1,16.88,31.07
N[C@H]1CN(C(=O)Cn2cccn2)C[C@@H]1C1CC1,-19.57,-3.396

For reference, 5 entries once more:

{"compound": "CC(=O)Nc1ccc(F)c(C(=O)N2CCCCO2)c1", "Mtb cholesterol medium": 4.044, "Mtb glucose medium": 11.1}
{"compound": "COCCn1cncc1CNC(=O)c1ccc(C)s1", "Mtb cholesterol medium": -2.404, "Mtb glucose medium": 19.59}
{"compound": "Cc1ncn(CC(O)c2cccc(F)c2)c(=O)c1C", "stereo": "stereo not shown", "Mtb cholesterol medium": 14.6, "Mtb glucose medium": 39.31}
{"compound": "OCCn1ncc2c1CN(CCCc1ccco1)C2", "Mtb cholesterol medium": -9.423, "Mtb glucose medium": 29.42}
{"compound": "CCC(=O)N1CCN(Cc2ccc(Br)cn2)CC1", "Mtb cholesterol medium": 8.372, "Mtb glucose medium": 30.03}